{"source": "PubChem BioAssay AID1259424 | University of Nebraska Medical Center | 2018", "aim": "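Find knockdowns that reproduce the expression shifts seen after KSR1 loss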 (primary screen)", "cells": "human HCT116 colon cancer cells", "knock-down reagent": "siRNA pool against human genes, 50 nM", "measured": "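Log2 levels of six mRNAs (branched-DNA multiplex), adjusted by two reference genes and the non-targeting median, then scored against the average KSR1 knockdown pattern as Pearson r and euclidean distance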", "reading the numbers": "mean correlation with KSR1 profile: higher = expression change more like KSR1 knockdown; mean distance from KSR1 profile: higher = expression change less like KSR1 knockdown", "note": "Shown is an unselected part of about 14,000 deposited reagents. 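Higher correlation or smaller distance means closer resemblance to KSR1 loss; control wells, including KSR1 knockdowns, recur on many plates.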 Not all columns of the deposit are shown. Not stated in the record: the time to read-out."}
{"gene": "CCT5 (GeneID 22948)", "mean correlation with KSR1 profile": 0.0545, "mean distance from KSR1 profile": 2.55}
{"gene": "TTC9 (GeneID 23508)", "mean correlation with KSR1 profile": -0.792, "mean distance from KSR1 profile": 2.83}
{"gene": "ERN1 (GeneID 2081)", "mean correlation with KSR1 profile": 0.0753, "mean distance from KSR1 profile": 5.28}
{"gene": "DR1 (GeneID 1810)", "mean correlation with KSR1 profile": -0.579, "mean distance from KSR1 profile": 3.16}
{"gene": "NOD1 (GeneID 10392)", "mean correlation with KSR1 profile": 0.0904, "mean distance from KSR1 profile": 1.29}
{"gene": "RIOX1 (GeneID 79697)", "mean correlation with KSR1 profile": 0.234, "mean distance from KSR1 profile": 1.78}
{"gene": "MSMO1 (GeneID 6307)", "mean correlation with KSR1 profile": 0.785, "mean distance from KSR1 profile": 2.13}
{"gene": "CLDN18 (GeneID 51208)", "mean correlation with KSR1 profile": 0.23, "mean distance from KSR1 profile": 3.76}
{"gene": "SMPDL3B (GeneID 27293)", "mean correlation with KSR1 profile": -0.519, "mean distance from KSR1 profile": 2.85}
{"gene": "RFC4 (GeneID 5984)", "mean correlation with KSR1 profile": 0.741, "mean distance from KSR1 profile": 1.13}
{"gene": "KLHL26 (GeneID 55295)", "mean correlation with KSR1 profile": -0.263, "mean distance from KSR1 profile": 2.23}
{"gene": "PRF1 (GeneID 5551)", "mean correlation with KSR1 profile": 0.501, "mean distance from KSR1 profile": 1.5}
{"gene": "RPL26 (GeneID 6154)", "mean correlation with KSR1 profile": -0.00918, "mean distance from KSR1 profile": 3.2}
{"gene": "TUFM (GeneID 7284)", "mean correlation with KSR1 profile": -0.466, "mean distance from KSR1 profile": 2.89}
{"gene": "MYH3 (GeneID 4621)", "mean correlation with KSR1 profile": -0.0649, "mean distance from KSR1 profile": 1.45}
{"gene": "TUBA1A (GeneID 7846)", "mean correlation with KSR1 profile": -0.013, "mean distance from KSR1 profile": 2.32}
{"gene": "LINC00470 (GeneID 56651)", "mean correlation with KSR1 profile": -0.546, "mean distance from KSR1 profile": 1.59}
{"gene": "PRMT5 (GeneID 10419)", "mean correlation with KSR1 profile": 0.0405, "mean distance from KSR1 profile": 3.33}
{"gene": "PHAX (GeneID 51808)", "mean correlation with KSR1 profile": 0.581, "mean distance from KSR1 profile": 1.26}
{"gene": "CLDN2 (GeneID 9075)", "mean correlation with KSR1 profile": 0.153, "mean distance from KSR1 profile": 2.49}
{"gene": "PSME3IP1 (GeneID 80011)", "mean correlation with KSR1 profile": 0.607, "mean distance from KSR1 profile": 2.25}
{"gene": "RTEL1 (GeneID 51750)", "mean correlation with KSR1 profile": -0.0635, "mean distance from KSR1 profile": 2.45}
{"gene": "UBE3A (GeneID 7337)", "mean correlation with KSR1 profile": -0.213, "mean distance from KSR1 profile": 1.47}
{"gene": "IL13RA1 (GeneID 3597)", "mean correlation with KSR1 profile": -0.302, "mean distance from KSR1 profile": 2.26}
{"gene": "TEX264 (GeneID 51368)", "mean correlation with KSR1 profile": 0.169, "mean distance from KSR1 profile": 2.23}
{"gene": "SNRNP70 (GeneID 6625)", "mean correlation with KSR1 profile": -0.416, "mean distance from KSR1 profile": 2.94}
{"gene": "MTHFD2L (GeneID 441024)", "mean correlation with KSR1 profile": 0.927, "mean distance from KSR1 profile": 0.601}
{"gene": "ZCCHC4 (GeneID 29063)", "mean correlation with KSR1 profile": -0.73, "mean distance from KSR1 profile": 4.57}

No new results follow: 4 of the entries above.
{"gene": "NOD1 (GeneID 10392)", "mean correlation with KSR1 profile": 0.0904, "mean distance from KSR1 profile": 1.29}
{"gene": "RIOX1 (GeneID 79697)", "mean correlation with KSR1 profile": 0.234, "mean distance from KSR1 profile": 1.78}
{"gene": "MSMO1 (GeneID 6307)", "mean correlation with KSR1 profile": 0.785, "mean distance from KSR1 profile": 2.13}
{"gene": "CLDN18 (GeneID 51208)", "mean correlation with KSR1 profile": 0.23, "mean distance from KSR1 profile": 3.76}
